The source of these data is article PMC1618416, “The Liganding of Glycolipid Transfer Protein Is Controlled by Glycolipid Acyl Structure” (PLoS Biology, 2006).

Experiment [1] deals with T1, His6-tagged human glycolipid transfer protein (GLTP) (human), Q9NZD2.
T1 chain: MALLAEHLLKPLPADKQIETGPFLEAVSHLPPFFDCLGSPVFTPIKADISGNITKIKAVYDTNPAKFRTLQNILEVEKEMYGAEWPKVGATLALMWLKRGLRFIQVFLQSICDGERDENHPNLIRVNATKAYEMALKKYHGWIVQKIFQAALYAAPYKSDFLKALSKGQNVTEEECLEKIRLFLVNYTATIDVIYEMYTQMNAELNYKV
The experiment in a line: AUC; sedimentation equilibrium, GSL-free (apo) GLTP; 7, 15 and 30 μM; 19,000 and 22,000 rpm; 20 °C; 20 mM Tris-HCl (pH 8.0), 150 mM NaCl; both purified. The note with it: remark: other sources report otherwise.

Experiment [2] has as its target T1, His6-tagged human glycolipid transfer …. The experiment in a line: AUC; sedimentation equilibrium, GLTP complexes with n-hexyl-β-D-glucoside, 18:1 LacCer or 24:1 GalCer; 7, 15 and 30 μM; 19,000 and 22,000 rpm; 20 °C; 20 mM Tris-HCl (pH 8.0), 150 mM NaCl; both purified. The note with it: remark: other sources report otherwise.

Results are given in words; binding and its absence hold for the method and conditions named. Sequences can lack the tags named with a protein.

B1: His6-tagged human glycolipid transfer protein (GLTP), Q9NZD2 1-209 (protein)
chain: MALLAEHLLKPLPADKQIETGPFLEAVSHLPPFFDCLGSPVFTPIKADISGNITKIKAVYDTNPAKFRTLQNILEVEKEMYGAEWPKVGATLALMWLKRGLRFIQVFLQSICDGERDENHPNLIRVNATKAYEMALKKYHGWIVQKIFQAALYAAPYKSDFLKALSKGQNVTEEECLEKIRLFLVNYTATIDVIYEMYTQMNAELNYKV
Take B1: the binding result in experiment [1] and in experiment [2] was “no binding (tested: 30 μM)” each time.
